Measurements published in patent US11446274B2, “Use of dianhydrogalactitol or derivatives or analogs thereof for treatment of pediatric central nervous system malignancies” (DelMar Pharmaceuticals, Inc., priority 2015, dated 2022).
Read-outs that look alike come from different tables or passages of the source. For part of these data: For at least one compound, name, drawing or mass did not settle the structure. Some of these results come from one statement about several compounds together.

Assays:
BT74 cancer stem cells = experiment: Neurosphere assay; type: cell-based; conditions: FIG. 24
[1] = test system: cells that are either MGMT-positive or MGMT-negative or MMR-proficient or MMR-deficient; conditions: cited from earlier work
[2] = test system: A2780 ovarian cancer cells; experiment: Cytotoxicity of dianhydrogalactitol and olaparib, individually or simultaneously; type: cell-based, human; conditions: concentrations shown in FIG. 40; assessed 5 days later

SMILES | sensitivity to temozolomide (BT74 cancer stem cells) | sensitivity ([1]; MGMT Negative, MMR-Deficient) | sensitivity ([1]; MGMT Negative, MMR-Proficient) | sensitivity ([1]; MGMT Positive, MMR-Deficient) | sensitivity ([1]; MGMT Positive, MMR-Proficient) | fraction of cells affected (Fa) [2]
Cn1nnc2c(C(N)=O)ncn2c1=O [temozolomide] | do not show significant sensitivity | Resistant | Sensitive | Resistant | Resistant | 
O=C(c1cc(Cc2n[nH]c(=O)c3ccccc23)ccc1F)N1CCN(C(=O)C2CC2)CC1 [olaparib, reference compound] |  |  |  |  |  | 15-25%
